# Reference: the supplement of paper PMC4604168 (melanoma cell lines)
# The other results are listed elsewhere or left out. Many values rest on one well or one pass, so single values are uncertain.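 Cells were imaged in 1,536-well plates, and nuclei stained with an antibody against cleaved PARP were counted against all DNA-stained nuclei to give the apoptosis fraction. Screening doses were chosen to leave most cells alive, and resting and induced cleaved-PARP levels differ strongly between cell lines.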
# System: WM115
# Assay: cleaved PARP positive nuclei fraction relative to DMSO control; melanoma cells; higher = more apoptosis
# Conditions: library dose: low library concentration; 72 h
row,SMILES,cleaved PARP positive nuclei fraction [%]
1,"C[C@@H](N)c1ccc(C(=O)Nc2ccnc3[nH]ccc23)cc1 + COc1cc(N2CCC(N3CCN(C)CC3)CC2)ccc1Nc1ncc(Cl)c(Nc2ccccc2S(=O)(=O)C(C)C)n1 [NVP-TAE684] (first compound 0.4 µM, partner dose 0.08 µM)",45.4
2,"CCN(CC)CCNC(=O)c1c(C)[nH]c(/C=C2\C(=O)Nc3ccc(F)cc32)c1C [sunitinib] + O=c1cc(-c2cccc3c2Sc2ccccc2S3)oc(N2CCOCC2)c1 [KU55933] (first compound 0.4 µM, partner dose 1 µM)",72.9
3,"C[C@]1(O)C[C@@H](c2nc(-c3ccc4ccc(-c5ccccc5)nc4c3)c3c(N)nccn32)C1 + O=C(Nc1ccccc1)c1cc([N+](=O)[O-])ccc1Cl [GW9662] (first compound 0.4 µM, partner dose 2 µM)",175
4,"CCCCCCCCc1ccc(CCC(N)(CO)CO)cc1 [fingolimod] + NCC(=O)Nc1ccc(-n2nc(C(F)(F)F)cc2-c2ccc3c(ccc4ccccc43)c2)cc1 [OSU03012] (first compound 2 µM, partner dose 1 µM)",90.1
5,"CC1(C)CCC(c2ccc(Cl)cc2)=C(CN2CCN(c3ccc(C(=O)NS(=O)(=O)c4ccc(N[C@H](CCN5CCOCC5)CSc5ccccc5)c(S(=O)(=O)C(F)(F)F)c4)cc3)CC2)C1 + CO[C@@H]1[C@H](N(C)C(=O)c2ccccc2)C[C@H]2O[C@]1(C)n1c3ccccc3c3c4c(c5c6ccccc6n2c5c31)C(=O)NC4 [Midostaurin] (first compound 0.4 µM, partner dose 0.08 µM)",83.9
6,"C[C@]1(O)C[C@@H](c2nc(-c3ccc4ccc(-c5ccccc5)nc4c3)c3c(N)nccn32)C1 + Cc1cc([N+](=O)[O-])ccc1NS(=O)(=O)c1cc(Cl)ccc1Cl [FH535] (first compound 0.4 µM, partner dose 1 µM)",45.5
